Results are given in words; binding and its absence hold for the method and conditions named. In cells and extracts the contact can be indirect. Some results given as binding are weak or reduced against the parent protein; the word gives no strength.
Target: STAT3 phosphorylated at Y705 (pSTAT3 Y705) (mouse (endogenous in mouse colonic IECs)) (UniProt P42227)
Assay: co-IP

Protein sequences, listed by entry. Tags and fused reporters are not part of them.
UniProt P42227: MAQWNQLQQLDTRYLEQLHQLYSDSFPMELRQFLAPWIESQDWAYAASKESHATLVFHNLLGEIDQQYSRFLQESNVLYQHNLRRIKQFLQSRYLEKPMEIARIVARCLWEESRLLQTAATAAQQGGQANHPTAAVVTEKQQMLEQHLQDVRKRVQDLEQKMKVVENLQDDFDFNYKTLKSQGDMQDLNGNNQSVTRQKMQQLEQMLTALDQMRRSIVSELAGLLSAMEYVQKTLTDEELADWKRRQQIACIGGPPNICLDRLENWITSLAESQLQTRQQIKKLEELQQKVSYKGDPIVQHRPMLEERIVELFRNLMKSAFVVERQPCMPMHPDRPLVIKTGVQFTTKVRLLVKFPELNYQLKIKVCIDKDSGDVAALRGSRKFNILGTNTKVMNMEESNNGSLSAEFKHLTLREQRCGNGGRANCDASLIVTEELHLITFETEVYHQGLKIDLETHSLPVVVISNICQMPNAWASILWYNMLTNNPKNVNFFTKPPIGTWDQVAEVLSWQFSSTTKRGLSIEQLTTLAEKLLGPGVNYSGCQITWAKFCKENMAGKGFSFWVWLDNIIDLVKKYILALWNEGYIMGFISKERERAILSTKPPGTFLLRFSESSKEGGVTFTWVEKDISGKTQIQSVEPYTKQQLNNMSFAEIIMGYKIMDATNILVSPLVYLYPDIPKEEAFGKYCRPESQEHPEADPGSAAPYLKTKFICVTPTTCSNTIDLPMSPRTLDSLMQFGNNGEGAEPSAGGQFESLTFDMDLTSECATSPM
UniProt P46938: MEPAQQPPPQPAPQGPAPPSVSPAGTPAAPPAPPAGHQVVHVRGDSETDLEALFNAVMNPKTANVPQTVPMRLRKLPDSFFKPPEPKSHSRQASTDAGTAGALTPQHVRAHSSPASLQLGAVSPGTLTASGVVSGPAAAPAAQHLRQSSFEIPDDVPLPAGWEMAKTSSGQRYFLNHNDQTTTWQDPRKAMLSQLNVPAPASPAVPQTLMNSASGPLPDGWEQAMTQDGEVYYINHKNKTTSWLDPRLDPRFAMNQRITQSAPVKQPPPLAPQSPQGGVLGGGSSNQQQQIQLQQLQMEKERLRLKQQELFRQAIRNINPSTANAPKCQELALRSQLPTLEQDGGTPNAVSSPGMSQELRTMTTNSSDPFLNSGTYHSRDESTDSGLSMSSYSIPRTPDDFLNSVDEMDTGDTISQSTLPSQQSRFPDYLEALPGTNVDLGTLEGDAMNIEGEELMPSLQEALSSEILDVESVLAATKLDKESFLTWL

Substance: YAP (from UniProt P46938 1-488)
- binding: binds

From doi:10.1101/2022.06.30.498349
